Out of some 140,000 compounds screened, about 4,300 (3.1%) were called active. The inconclusive results got no clear call from the source; some entries with a clear call stand among them for comparison.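 The calls were made as follows: active = readout at or below -70, meaning at least 70% loss of cells showing the perinucleolar compartment, a nuclear body marking cancer cells; inconclusive = readout between -30 and a set limit; inactive = the rest.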
assay: High Content Assay for Compounds that inhibit the Assembly of the Perinucleolar Compartment; details: PC3M PTB-GFP, PNC prevalence imaging, 16 h; at 10 µM; stronger effect = lower value;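 also: plate controls were DMSO wells for no effect and camptothecin positive control wells for full effect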
How it was run: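 Read-out is percentage of cells bearing a perinucleolar compartment, from automated 20x imaging of fixed, Hoechst-stained PC3M PTB-GFP cells. Cells were seeded 4 h, then exposed 16 h to compound (23 nl of library stock) in duplicate plates.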

Row | SMILES | activity change (PNC), negative = inhibition
1 | COc1ccc(C(c2sc3nc(C)nn3c2O)N2CCC3(CC2)OCCO3)cc1 (stereo unspecified) | inconclusive: -45.9%
2 | CC(C)C(OC(=O)c1cc2sccc2n1C)C(=O)NCC1CCCO1 (stereo unspecified) | inactive: 20.1%
3 | O=C(c1sccc1-n1cccc1)N1CCCC1 | active: -83.4%
4 | CCOC(=O)c1c(NC(=S)Nc2ccc(OC)cc2)sc2c1CCCCC2 | inactive: 30.4%
5 | COc1cccc(NC(=O)N2CCN(C(=O)C(Cc3ccc(OC)c(OC)c3)NC(C)=O)CC2)c1 (stereo unspecified) | inactive: -2.48%
6 | COc1ccc(/C=C/C(=O)c2ccc[nH]2)cc1OC | inactive: -3.99%
7 | CCOC(=O)c1c(C)[nH]c(C)c1C(=O)CSc1nnc(-c2ccncc2)n1Cc1ccccc1 | inactive: -10%
8 | CC(=O)N(c1ccccc1)c1c(F)c(F)c(F)c(F)c1F | inactive: -22.2%
9 | O=C(O)c1sccc1SCc1ccc(Cl)cc1Cl | inactive: 14.8%
10 | Cc1ccc(O)c(-c2cc3ccccc3[nH]2)c1 | inactive: 13.2%
11 | N#C/C(=C/c1ccc(N2CCCCCC2)o1)c1cccc(F)c1 | inconclusive: -70.3%
12 | O=C(NNC(=O)c1sc2cccc(Cl)c2c1Cl)Nc1ccccc1 | inconclusive: -38%
13 | Cc1c(Cl)cccc1N(CC(=O)NC1CCCCC1)S(C)(=O)=O | inconclusive: -44.2%
14 | CCn1c(SCC(=O)Nc2ccc3c(c2)OCO3)nc2c(c1=O)SC(C)C2 (stereo unspecified) | inactive: 21.1%
15 | Cc1cc2ccccc2c(=O)[nH]1 | inconclusive: -30.4%
16 | O=C(CCn1c(=O)sc2ccccc21)NCc1ccco1 | inconclusive: -36.5%
17 | Cc1cc(=O)oc(C)c1C(=O)Nc1c(C)n(C)n(-c2ccccc2)c1=O | inactive: 47%
18 | CCn1c(COc2ccccc2)nnc1SCC(=O)NC1CCCCC1 | inconclusive: -47.7%
19 | COC(=O)Cn1nnc(-c2cccc(OC)c2)n1 | inactive: -17.1%
20 | CC(/C=C/c1ccccc1)=N\Nc1nc(C)cc(C)n1 | inactive: 4.2%
21 | Cc1ccc(-n2c(SCC(=O)NCCN3C(=O)CSC3=O)nnc2-c2ccccc2F)cc1 | inconclusive: -61.4%
22 | COc1ccc(NC(=O)c2c(Nc3ccccc3)sc(C(=O)c3ccc(F)cc3)c2N)cc1 | inconclusive: -34.2%
23 | COc1ccc(N2CCN(c3nc4ccccc4nc3NS(=O)(=O)c3ccccc3)CC2)cc1 | inconclusive: -54.9%

Row | SMILES | activity change (PNC), negative = inhibition
24 | Cc1ccccc1C(=O)NCC(=O)NNC(=S)NC(=O)c1ccccc1 | active: -83.1%
25 | O=C(NC(=S)Nc1cccc(NC(=O)c2ccccc2)c1)c1cccc([N+](=O)[O-])c1 | inactive: 5.81%
26 | O=C(NC(=S)Nc1ccccc1)c1csnn1 | inconclusive: -46.3%
27 | O=C(CCCNC(=O)/C(=C\c1ccc(F)cc1)NC(=O)c1ccccc1)OCc1ccccc1 | inactive: 74.8%
28 | CCn1c(SCC(=O)N2CCCC2)nc2ccccc2c1=O | inactive: 8.13%
29 | CC(=O)Nc1cc(C(=O)N2CCCC2)ccc1S(=O)(=O)c1ccc(C)cc1 | inactive: 15.6%
30 | COc1ccccc1NC(=O)CSc1nnc(-c2ccc(C)cc2)o1 | inconclusive: -50%
31 | O=C1c2[nH]nc(-c3ccccc3O)c2C(c2cccc(O)c2)N1Cc1ccco1 (stereo unspecified) | inconclusive: -53.4%
32 | CCCCOc1ccc(C(=O)Nc2cccc(C)n2)cc1 | inconclusive: -56.1%
33 | Cc1ccc2[nH]c(=O)c(CN(CCCN3CCOCC3)C(=O)Nc3cccc(Cl)c3)cc2c1 | inconclusive: -35.5%
34 | CCCc1cc(C(=O)NCCc2ccccc2)no1 | inconclusive: -41.7%
35 | O=C(O)/C=C/c1cn(-c2ncc(C(F)(F)F)cc2Cl)c2ccccc12 | inconclusive: -45.2%
36 | O=C(O)c1ccc2nc(-c3ccccc3)sc2c1 | inconclusive: -55.4%
37 | N#Cc1c(C(F)(F)F)cc(-c2cccs2)nc1SCc1ccc(Cl)nc1 | inconclusive: -71%
38 | Cc1sc2ncnc(N3CCCCC3)c2c1C | inactive: -0.362%
39 | COc1cccc(CN(c2ccc3c(c2)CCC3)S(=O)(=O)c2ccc(-n3cnnn3)c(OC)c2)c1 | inconclusive: -39.4%
40 | Cc1ccsc1C(=O)N1CC(=O)Nc2ccccc21 | inconclusive: -78.3%
41 | COc1ccc(NC(=O)c2cccnc2N2CCCC2)cc1 | inconclusive: -46.1%
42 | COc1ccc2cc(C)c3nnc(SCC(=O)Nc4nc(-c5ccc(F)cc5)cs4)n3c2c1 | inactive: 22.3%
43 | Cc1ccc([N+](=O)[O-])cc1N(CC(=O)Nc1ccc(S(=O)(=O)Nc2cccc(C(F)(F)F)c2)cc1)S(C)(=O)=O | inconclusive: -51.4%
44 | O=C(NCc1ccc2c(c1)OCO2)c1ccc(CS(=O)(=O)c2cccc(C(F)(F)F)c2)o1 | inactive: -22.8%
45 | CCOC(=O)C(NC(C)=O)(Nc1ccc(S(=O)(=O)Nc2nccs2)cc1)C(F)(F)F (stereo unspecified) | inconclusive: -52.9%
46 | CC(=O)c1cc(CC=C(C)C)c(O)cc1O | inactive: 34.5%

Three compounds picked at random from the list so far, as already listed:
Row | SMILES | activity change (PNC), negative = inhibition
26 | O=C(NC(=S)Nc1ccccc1)c1csnn1 | inconclusive: -46.3%
36 | O=C(O)c1ccc2nc(-c3ccccc3)sc2c1 | inconclusive: -55.4%
12 | O=C(NNC(=O)c1sc2cccc(Cl)c2c1Cl)Nc1ccccc1 | inconclusive: -38%

Shown comma-delimited: part of the list above
Row,SMILES,"activity change (PNC), negative = inhibition"
30,COc1ccccc1NC(=O)CSc1nnc(-c2ccc(C)cc2)o1,inconclusive: -50%
33,Cc1ccc2[nH]c(=O)c(CN(CCCN3CCOCC3)C(=O)Nc3cccc(Cl)c3)cc2c1,inconclusive: -35.5%
40,Cc1ccsc1C(=O)N1CC(=O)Nc2ccccc21,inconclusive: -78.3%
41,COc1ccc(NC(=O)c2cccnc2N2CCCC2)cc1,inconclusive: -46.1%

(further entries)

Row | SMILES | activity change (PNC), negative = inhibition
47 | CCNS(=O)(=O)c1ccc2c(c1)NCC2 | inconclusive: -37%
48 | C=CCNC(=O)/C(=C/c1cn(-c2ccccc2)nc1-c1cccc([N+](=O)[O-])c1)NC(=O)c1ccccc1 | inactive: 14.4%
49 | CCCCNC(=S)N=Nc1c(O)n(Cc2ccccc2)c2ccccc12 | inactive: 39.5%
50 | Cc1cc(C(F)F)n2ncc(C(=O)N3CCCCC3)c2n1 | inactive: -7.35%
51 | Cc1nc2ccccc2n1/N=C/c1ccc([N+](=O)[O-])s1 | inactive: 39.2%
52 | CC(=O)Nc1cccc(C(=O)Oc2cccc(C)c2)c1O | inconclusive: -55.4%
53 | Cc1ccc(S(=O)(=O)N/N=C/c2c(C)nn(-c3ccccc3)c2C)cc1 | inactive: 9.65%
54 | Cc1ccc(NC(=O)C2CCCN(S(=O)(=O)c3cccs3)C2)cc1 (stereo unspecified) | inactive: 10.1%
55 | NC(=O)c1ccc(NC(=O)CCCN2C(=O)c3ccccc3C2=O)cc1 | inconclusive: -42.9%
56 | O=C(COc1ccc(Cl)cc1)N1CCN(c2ccc([N+](=O)[O-])c(N3CCCCC3)c2)CC1 | inactive: 26.6%
57 | CC(C)(C)C1(C)OC(=O)C(=Cc2ccc(OCC(=O)Nc3ccccc3)cc2)C(=O)O1 (stereo unspecified) | inactive: -15.7%
58 | COc1cccc2c1OC1(C)CC2N(C(=O)c2ccco2)C(=S)N1c1ccc(F)cc1 (stereo unspecified) | inconclusive: -40.4%
59 | COC(=O)c1cccc(NS(=O)(=O)c2ccc(OC)c(OC)c2)c1C | active: -84.4%
60 | Cc1cc(C)n(-c2nnc3n2N=C(c2ccccc2)CS3)n1 | active: -135%
61 | COc1ccc(NC(=O)CCc2nc(-c3ccc(C)cc3)no2)c(OC)c1 | active: -103%
62 | Cc1cc2c(c(=O)n1CCN(C)C)C(c1ccccc1Br)C(C#N)=C(N)O2 (stereo unspecified) | inconclusive: -32.7%
63 | O=C(N/N=C/c1ccc(Br)s1)c1c[nH]c2ccccc12 | inconclusive: -47.3%
64 | O=C(Cc1ccc(Cl)cc1)NCCCn1ccnc1 | inconclusive: -30.7%
65 | Cc1ccc(N(CC(O)Cn2c3ccccc3c3ccccc32)S(C)(=O)=O)c(C)c1 (stereo unspecified) | inconclusive: -32.8%
66 | O=c1[nH]c2cc3c(cc2cc1CN(CCCO)Cc1nnnn1Cc1ccc(F)cc1)OCO3 | inactive: 22.6%
67 | CC(C)(C)n1nnnc1CN1CCN(C2CCCC2)CC1 | inconclusive: -47.8%
68 | COCCn1c(C)cc(/C=C2\NC(=S)N(C)C2=O)c1C | inconclusive: -53.4%
69 | COc1ccc(C2(C(=O)Nc3ccc(S(=O)(=O)Nc4nc(C)cc(C)n4)cc3)CCCC2)cc1OC | inconclusive: -35.5%

Row | SMILES | activity change (PNC), negative = inhibition
70 | CCn1ncc(Cl)c1C(=O)Nc1ccncc1 | active: -114%
71 | CCOc1cccc(/C(O)=C2/C(=O)C(=O)N(Cc3ccco3)C2c2ccncc2)c1 (stereo unspecified) | inactive: 26%
72 | Cc1nc2cc(C(=O)OCC(=O)N(CC(C)C)C3CCS(=O)(=O)C3)ccc2n1-c1ccccc1 (stereo unspecified) | inconclusive: -40.4%
73 | CCOC(=O)N1CCN(C(=O)Nc2ccc3oc(C)nc3c2)CC1 | inconclusive: -53.8%
74 | O=C(Oc1c(Cl)cc(Cl)c2cccnc12)c1cccs1 | inactive: -25.8%
75 | CCCc1nc(NCc2ccccn2)c2nnn(Cc3ccccc3F)c2n1 | inconclusive: -38%
76 | CCn1c(-c2cccnc2)n[nH]c1=S | inactive: 44.5%
77 | Cc1ccc(-c2nc(NC(=O)CSc3nnc(C)s3)ns2)cc1 | inactive: 7.54%
78 | COc1cccc(-c2csc(N3CCN(C(=S)Nc4ccccc4)CC3)n2)c1 | inactive: 37.6%
79 | COC(=O)Cn1cccc1C(=O)c1ccccc1 | inconclusive: -56.8%
80 | CCc1ccc(NC(=O)CCN2C(=O)c3cccnc3C2=O)cc1 | inactive: -14.7%
81 | COc1ccccc1CNC(=O)c1cccc(C)c1[N+](=O)[O-] | inactive: -14.8%
82 | CCC(CC)C(=O)NCCCCc1ccccc1 | inconclusive: -76.9%
83 | O=C(CSc1ccc(-c2ccccc2)nn1)N1CCN(c2ccccc2)CC1 | inactive: -1.96%
84 | Cc1cc(=O)[nH]c(SCc2cc(Cl)ccc2OC(F)F)n1 | inactive: 4.54%
85 | O=C1c2ccccc2C(=O)N1Cc1cc(-c2ccccc2)no1 | inconclusive: -66.3%
86 | CCN1CCN(C2=NC(=O)/C(=C/c3ccc(C)o3)S2)CC1 | inactive: 21.6%
87 | Cn1c(=O)c2[nH]c(CN3CCN(Cc4ccccc4)CC3)nc2n(C)c1=O | inconclusive: -52.9%
88 | Cc1cccc(C(=O)Nc2cccc(OC(=O)c3cccc(C)c3)c2)c1 | inconclusive: -36%
89 | O=C(NCc1ccncc1)c1cccc(Cn2cc(Br)cn2)c1 | inconclusive: -38.3%
90 | CC(C)(C)c1ccc(-c2nnc(SC3CCOC3=O)n2Cc2ccccc2)cc1 (stereo unspecified) | inconclusive: -73.8%
91 | CC(CNC(=O)COc1ccccc1)OC(=O)Nc1cccc(Cl)c1 (stereo unspecified) | inconclusive: -56%

From PubChem BioAssay AID2417 (National Center for Advancing Translational Sciences (NCATS), 2010)
